Experimental data taken from patent US20030004092A1.
Results are given in words; binding and its absence hold for the method and conditions named. Binding seen in cells or lysates may run through a third protein. Some entries that bind do so weakly or less than the wild type. Tags and fused reporters may be left off the sequences shown.

Protein sequences, listed by entry. Tags and fused reporters are not part of them.
UniProt P01108: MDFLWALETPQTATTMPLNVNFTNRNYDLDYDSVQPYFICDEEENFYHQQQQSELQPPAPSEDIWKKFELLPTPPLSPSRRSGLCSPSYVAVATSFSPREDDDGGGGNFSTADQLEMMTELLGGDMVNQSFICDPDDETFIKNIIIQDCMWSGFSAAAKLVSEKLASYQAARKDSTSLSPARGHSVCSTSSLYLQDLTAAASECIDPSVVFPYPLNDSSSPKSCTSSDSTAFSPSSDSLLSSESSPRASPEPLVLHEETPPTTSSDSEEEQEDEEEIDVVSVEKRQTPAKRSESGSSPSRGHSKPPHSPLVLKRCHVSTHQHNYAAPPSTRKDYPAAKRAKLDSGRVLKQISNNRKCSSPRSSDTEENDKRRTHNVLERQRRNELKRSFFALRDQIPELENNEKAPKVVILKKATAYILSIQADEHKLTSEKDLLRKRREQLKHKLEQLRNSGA

Target: T1, GST-cdr2 fusion protein containing amino acids 16-192 of human cdr2 (human) (UniProt Q01850)
T1 sequence: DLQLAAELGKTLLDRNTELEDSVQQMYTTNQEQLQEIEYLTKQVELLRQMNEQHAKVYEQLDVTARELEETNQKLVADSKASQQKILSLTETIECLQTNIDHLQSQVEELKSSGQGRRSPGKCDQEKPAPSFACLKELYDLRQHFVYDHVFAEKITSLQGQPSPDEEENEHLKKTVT
Experiment: GST pull-down, fluorography

“full length in vitro translated ^35S-labeled mouse Myc (from UniProt P01108 1-454)” was tested, and the binding was “binds”.
